The exact form of at least one protein or probe is not confirmed.
Test system: Foxd.b DNA-binding domain-GST fusion (Ciona intestinalis)
Experiment: EMSA
Conditions: 50 ng/uL poly(dIdC), 3' terminal TTT of each strand is biotin-11-dU (fill-in of the 5' AAA overhangs of S2/S3), 10 mM Tris pH 7.5, 50 mM KCl, 1 mM DTT, 1 mM EDTA, 2.5% glycerol, 0.05% NP40, temperature not stated, recombinant protein, protein details: GST, label: biotin, letters put together from the description

AAATAACAATAATGTTTACGTTGGTTTT (double strand) [Dmrt1 upstream Fox site probe]
binding result: binds

From publication PMC5453608
